Data published in PubChem BioAssay AID1919006 (Molecular Pharmacology Branch, DTP, NCI, 2023).
Several values for one entry are separate records, joined by “and”; a condition that tells them apart may be missing. Rule for the calls: active = viability on the fitted dose curve at most 10% of control; inactive = the rest. Equal entries are not always repeated. Further values from the same series stand in other lists.

System: 885512-296-R-J2-PDC complex spheroid growth, % test/control
Assay: Anticancer human tumor 885512-296-R-J2-PDC patient-derived breast carcinoma cell line growth inhibition [AhR]
Conditions: stronger effect = lower value
Description: Multicellular complex tumor spheroid response to aryl hydrocarbon receptor antagonists in combination with a variety of drugs and investigational agents in selected tumor cell lines
The current study was undertaken to assess response to aryl hydrocarbon receptor antagonists in combination with standard-of-care drugs and investigational agents in solid tumor complex spheroid models. Complex spheroids include a stromal component modeled by human endothelial cells (HUVEC) and fibroblasts modeled by human mesenchymal stem cells (MSCs). The concentration ranges selected for each drug and investigational agent were based upon clinically achievable concentrations if the clinical Cmax of the agent was known.
Compounds. The drugs and investigational agents: BAY 2416964 (NSC825713), GNF351 (NSC835774), CH-223191 (NSC835775), CPI-455 (NSC825282), aza-TdCyd (NSC777586), decitabine (NSC127716), belinostat (NSC758774), entinostat (NSC756642), pevonedistat (NSC761192), tazemetostat (NSC777109), talazoparib (NSC765396), olaparib (NSC753686), selinexor (NSC780203), nedisertib (M3814, NSC802822), bortezomib (NSC756655), venetoclax (NSC766270), doxorubicin (NSC123127), elimusertib (BAY189344, NSC800525), ceralasertib (AZD6738, NSC777638), TAK-243 (NSC785004), alisertib (NSC759677), etoposide (NSC141540), topotecan (NSC609699), eribulin (NSC707389), gemcitabine (NSC613327), carboplatin (NSC241240), cisplatin (NSC119875), and SN-38 (NSC673596) were obtained from the National Cancer Institute (NCI) Developmental Therapeutics Program Chemical Repository (32). The FDA-approved anticancer drug set is available from the Developmental Therapeutics Program at https://dtp.cancer.gov/organization/dscb/obtaining/available plates.htm. […] The stock solutions were prepared in dimethyl sulfoxide (DMSO, Sigma-Aldrich, St. Louis, MO, cat. D2650), except for the platinum compounds which were prepared in saline (Quality Biological, Gaithersburg, MD, cat. 114-055-101), at 800-fold the tested concentration and stored at -70 degrees C prior to their use. All drugs and investigational agents were tested over a range starting from a high concentration at or near the clinical Cmax and decreasing in half-log increments. If the clinical Cmax for an agent had not been determined, the highest concentration tested was 10 microM (Table 1).
Cell Culture. All cells were maintained in an incubator at 37 degrees C and 5% CO2 with 95% humidity. The PDC lines were cultured according to standard operating procedures established by the NCI PDMR (https://pdmr.cancer.gov). Briefly, all PDCs were thawed and cultured in Matrigel-coated flasks prepared with a working solution of 1X Ham's F-12 nutrient mix, without supplementation (Invitrogen, Waltham, MA, cat. 11765054), 100 U/mL penicillin-streptomycin (Invitrogen, cat. 15140122), and 2.5% Matrigel (Corning Inc., Corning, NY, cat. 354248) for the first three passages. All PDCs were cultured in complete DMEM/F-12 media containing advanced DMEM/F-12 (Invitrogen, cat. 12634028), 4.9% defined fetal bovine serum, heat inactivated (HyClone Laboratories Inc., Logan, UT, cat. SH30070.03HI), 389 ng/mL hydrocortisone (Sigma-Aldrich, cat. H4001), 9.7 ng/mL human EGF recombinant protein (Invitrogen, cat. PHG0313), 23.4 microg/mL adenine (Sigma-Aldrich, cat. A2786), 97.3 U/mL penicillin-streptomycin (Invitrogen, cat. 15140122), 1.9 mM L-glutamine (Invitrogen, cat. 25030081), and 9.7 microM Y-27632 dihydrochloride (Tocris Bioscience, Bristol, United Kingdom, cat. 1254). The PDCs were cultured in complete DMEM/F12 media without 10 microM Y-27632 dihydrochloride for at least two passages prior to the screen. The established cell lines NCI-H1341 and […] were cultured in DMEM/F-12, HEPES (Invitrogen, cat. 11330032), 5% defined fetal bovine serum (HyClone Laboratories Inc., cat. SH30070.03), ITS premix universal culture supplement [insulin (5 microg/mL), transferrin (5 microg/mL), and selenious acid (5 ng/mL)] […]

Measured: viability, T/C
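Note: spheroids exposed to compounds for seven days.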

Cc1cncc(-c2nc(NCCc3c[nH]c4ccccc34)c3ncn(C(C)C)c3n2)c1
inactive: compound 0.1 µM 95.2% and 96.5% and 89.6% | compound 0.316 µM 96.8% [middle of 4 runs] | compound 1 µM 87.9% [middle of 5 runs] | compound 3.16 µM 56.3% [middle of 5 runs] | compound 10 µM 15.6% [middle of 4 runs]

Cc1ccccc1N=Nc1ccc(NC(=O)c2ccnn2C)c(C)c1
inactive: compound 0.1 µM 95.9% and 99.9% | compound 0.316 µM 97.2% and 91.6% and 119% | compound 1 µM 99.8% and 92.3% | compound 3.16 µM 91.1% [middle of 5 runs] | compound 10 µM 52.5% and 52.8% and 50.3%

CC(CO)NC(=O)c1cc(-c2ccc(Cl)cc2)nn(-c2cnn(C)c2)c1=O (centres undefined)
inactive: compound 0.1 µM 101% and 90.4% | compound 0.316 µM 94.8% [middle of 4 runs] | compound 1 µM 94.9% [middle of 4 runs] | compound 10 µM 92% [middle of 6 runs]
